The values below are quoted from earlier work in patent US20250032463A1, “RAPAMYCIN-CONTAINING PHARMACEUTICAL COMPOSITION” (NOBELPHARMA CO., LTD., priority 2023, published 2025).

The structures appear in SMILES notation.

For the molecule `CO[C@H]1C[C@@H]2CC[C@@H](C)[C@@](O)(O2)C(=O)C(=O)N2CCCC[C@H]2C(=O)O[C@H]([C@H](C)C[C@@H]2CC[C@@H](O)[C@H](OC)C2)CC(=O)[C@H](C)/C=C(\C)[C@@H](O)[C@@H](OC)C(=O)[C@H](C)C[C@H](C)/C=C/C=C/C=C/1C` [rapamycin, Rapamycin], the solubility in water result is recorded as “almost insoluble”.
